From PubChem BioAssay AID651660 (Broad Institute, 2012)
Several values for one entry are separate records, joined by “and”; a condition that tells them apart may be missing. Equal values may be shown once. Out of some 1,900 compounds screened, about 15 (0.8%) were called active.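 How the source made its calls: active means every replicate shows at least 50% inhibition; inconclusive means mean inhibition at least 50% but some replicate below; inactive means the rest.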 Some of the results follow. Residues, ends and D or L forms follow the SMILES beside them. *: point of attachment. Boc = CC(C)(C)OC(=O)*; OBn = c1ccc(CO*)cc1

Amino acid sequences for entries named in this document (tags omitted). A change or cut given only in a name is not applied to a line headed by its entry.
UniProt P43351: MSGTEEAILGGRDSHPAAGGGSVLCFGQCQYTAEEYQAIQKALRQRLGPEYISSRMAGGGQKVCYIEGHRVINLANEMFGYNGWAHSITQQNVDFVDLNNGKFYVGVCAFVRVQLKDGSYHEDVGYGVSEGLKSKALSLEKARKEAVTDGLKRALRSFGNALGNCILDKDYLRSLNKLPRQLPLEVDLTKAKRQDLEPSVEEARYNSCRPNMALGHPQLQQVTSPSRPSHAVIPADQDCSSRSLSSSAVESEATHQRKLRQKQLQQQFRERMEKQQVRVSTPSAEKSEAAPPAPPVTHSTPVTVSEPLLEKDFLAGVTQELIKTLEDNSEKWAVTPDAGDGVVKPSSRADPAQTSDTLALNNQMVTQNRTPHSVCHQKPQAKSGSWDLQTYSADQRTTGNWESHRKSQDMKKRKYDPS

The molecules below were run against DNA repair protein RAD52 homolog (Homo sapiens) (UniProt P43351) (assay: inhibition of RAD52-mediated strand annealing – biochemical, FRET, single point, primary screen (AID 651660;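 further: 0% = median of neutral control wells and 100% = median of positive control wells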)). Settings: Recombinant RAD52 ssDNA annealing, FRET fluorescence, 30 min; at 18.7 µM; active compounds read high.

inhibition, inactive:
O=C(/C=C/c1ccco1)Nc1ccccc1C(=O)O -76.5%, c1coc(-c2nnc3n2C2(CCCC2)Cc2ccccc2-3)c1 -1.46%, CCCCCCC(=O)N(O)C1CC(=O)N(Cc2ccccc2)C1=O (configuration not stated) -13.2%, O=C(CN1C(=O)c2ccccc2S1(=O)=O)Nc1ccccc1 -5.83%, COc1cc2c(cc1OC)-c1nnc(C)n1C(C)(C)C2 -0.769%, CCOCC(=O)Nc1ccccc1C(=O)N1CCOCC1 -4.04%, O=C(O)/C=C/c1cccc(OCc2ccccc2)c1 -1.88%, C#C[C@]1(O)CC[C@H]2[C@@H]3CCc4cc(OC)ccc4[C@H]3CC[C@@]21C -9.72%, CCOC(=O)Nc1ccc2c(c1)N(C(=O)CCN1CCOCC1)c1ccccc1S2 0.165%, O=C(O)CCn1c(=S)n(CCC(=O)O)c2ccccc21 -0.306%, CC1(CC(=O)Nc2ccccc2)NC(=S)N(c2ccccc2)N1 (configuration not stated) -0.205%, CN=C(NC#N)NCCSCc1nc[nH]c1C -0.437%, CCC(C)NCCOCCOc1ccc(Cl)c2ccccc12 (configuration not stated) 37.3%, CCOC(=O)c1cnc2ccccc2c1NCCO 10.9%, COc1ccc(-c2csc(-c3cccnc3)n2)cc1C -4.39%, COc1ccc(C2(CCN=Cc3ccc(N(C)C)cc3)CCOC(C)(C)C2)cc1 (configuration not stated) -21.1%, COc1ccc(C(=O)Nc2ccccc2C(=O)NCCCn2ccnc2)cc1 0.256%, CC(C)CC(NC(=O)C(NC(=O)OC(C)(C)C)C(C)C)C(=O)NC(CCC(=O)OCc1ccccc1)C(N)=O (stereo not drawn) (Boc-Val-Leu-Glu(OBn)-NH2; configuration not given here) -6.12%, O=C(CC1SC(=O)NC1=O)Nc1ccc(Cl)cc1 (configuration not stated) -7.21%, COc1ccc(Br)cc1C(=O)Nc1ccc(C(=O)O)cc1 -5.54%, COc1cc([C@@H]2c3cc4c(cc3[C@H](O)[C@H]3COC(=O)[C@H]23)OCO4)cc(OC)c1OC -89.4%, COc1ccc(NC(=O)CC(c2ccccc2)c2ccco2)cc1 (configuration not stated) -8.33%, COc1cc(OC)c2c(C)c(Cl)c(=O)oc2c1 -4.97%, CCOc1ccc2oc(-c3ccccc3)c(C(=O)O)c2c1 -1.63%, CC[C@H]1CN2CCc3cc(OC)c(OC)cc3[C@@H]2C[C@@H]1C[C@H]1NCCc2cc(OC)c(OC)cc21 4.86%, CCN(CC)CCNC(=O)c1ccc(NC(C)=O)cc1 0.0885% and -5.25%, COc1ccc(CCNC(=O)C(=O)Nc2ccc3c(c2)OCO3)cc1OC -0.306%, Cn1c2ccccc2c2cc(/C=C(\NC(=O)c3ccccc3)C(=O)O)ccc21 -10.8%, CNC[C@H](O)c1cccc(O)c1 7.82%, COc1ccc2[nH]c(CN3CCN(CC(C)C)C(CCO)C3)c(C)c2c1 (configuration not stated) -14.8%, O=C(/C=C/c1ccc(F)cc1)NC(=S)N1CCCCC1c1cccnc1 (configuration not stated) -4.65%, O=C(NC1CCCCC1)c1cc2nc(-c3ccco3)cc(C(F)(F)F)n2n1 -299%, Cc1c(OCC(F)(F)F)ccnc1CS(=O)c1nc2ccccc2[nH]1 (configuration not stated) -14.2%, O=C(c1ccc(-c2ccccc2)c(F)c1)C1CCCN(C(=O)c2cncs2)C1 (configuration not stated) -5.72%, COc1ccc(C(=O)COc2ccc(F)cc2)c(O)c1 -11.9%, COc1ccc2c(c1OC)C(=O)N1C2SC[C@H]1C(=O)NC1CC(C)(C)NC(C)(C)C1 (some centres not stated) -12.4%, CC(C)OC(=O)c1ccc(NC(=O)c2cncc(Br)c2)cc1 5.94%, O=C(O)COc1ccc2occ(C(=O)c3ccccc3)c2c1 -10.4%, CN(C)c1ccc(Nc2c3c4c(cccc4n(C)c2=O)C(=O)c2ccccc2-3)cc1 -136%, COC(=O)c1sccc1NC(=O)Nc1ccccc1F -4.3%, CCN(CC)c1ccc([C@H]2[C@@H]3CCCC[C@]3(O)CCN2CC(=O)NCc2ccco2)cc1 -20.6%, COc1cc(-c2cccs2)cc(=O)c2c(C)oc(C)c12 -80.9%, O=Cc1ccccc1Oc1ccccc1 5.83%, COc1cc(=O)n(C)c2ccccc12 -3.21%, COc1ccc(N2C(=O)C3CCCN3C2=O)cc1 (configuration not stated) -5.53%, Cc1cc(C(=O)Nc2ccccc2C(=O)N2CCCCC2)ccc1[N+](=O)[O-] 1.77%, CN(Cc1ccccc1)CC(O)COc1ccc(CNCc2cccnc2)cc1 (configuration not stated) 25.5%, CCOC(=O)C1(CCCc2ccccc2)CCN(C2CCN(C(C)=O)CC2)CC1 7.76%, COc1ccc2[nH]c3c(c2c1)CCNC3C1CC=C(C)CC1 (configuration not stated) -2.2%, CN(C)CCN(Cc1cccs1)c1ccccn1 2.61%, CCNC(=O)C12CCC(C)(C(=O)O1)C2(C)C (configuration not stated) -8.08%, COc1cc2c(cc1OC)C(c1cc3ccccc3oc1=O)=NC(C)(C)C2 -3.56%, CCOc1cc2oc(=O)c3c(c2cc1Cl)CCC3 -1.74%, COc1ccc2oc(-c3ccco3)cc(=O)c2c1 -16.1%, NC(=O)N1c2ccccc2C=Cc2ccccc21 -2.44%, COc1cc(C2NCCc3c2[nH]c2ccccc32)ccc1OC(C)C (configuration not stated) 1.55%, CC(C)(C)N(Cc1ccccc1)C(=O)c1ccc(Br)o1 -0.336%, COc1ccc(CN(CCN(C)C)c2ccccn2)cc1 -2.8%, CCOC(=O)C(Cc1cc(C(C)=O)ccc1OC(C)C)C(=O)OCC -7.77%, CCCNC(C)C(=O)Nc1ccccc1C (configuration not stated) -1.36%, CC(COc1ccccc1)N(CCCl)Cc1ccccc1 (configuration not stated) 3.95%, CN(CCO)CC(O)Cn1cnc2c1c(=O)n(C)c(=O)n2C (configuration not stated) (tested in a mixture with another compound) -12.6%
